Experimental data from US20110237606A1, “3-Deazaneplanocin Derivatives” (AGENCY OF SCIENCE, TECHNOLOGY AND RESEARCH, priority 2008, published 2011).
Structures can show the parent of a compound that is named as a salt. At least one read-out could not be matched to a standard name with certainty.

Columns and labels:
HCT115 ER-E2F1 cells = assay: E2F1-induced apoptosis assay (ER-E2F1 activated by 4-OHT), FACS subG1; type: cell-based; details: without 4-OHT (value before the parentheses); 'No activity'
Text: Two assays were used to measure the compound's activity in induce apoptosis. The first assay measures the activity of compound to activate E2F1-induced apoptosis. In this assay, transcription factor E2F1 was engineered with ER receptor ligand binding domain. Addition of 4-OHT will be able to activate ER-E2F1 complex activity.
Fluorescence activated cell sorting (FACS) also known as flow cytometry is the technique used to determine apoptosis in this set of experiments. Apoptosis is indicated by cell populations with DNA content in the subG1 range. To determine the activity of these compounds, the inventors used HCT115 ER-E2F1 cells to determine the activity of the compound in inducing E2F1-dependent apoptosis. In this assay, addition of 4-OHT ligand will activate E2F1. DZNep has been show previously to activate OHT-induced apoptosis in this system.

colon cancer cells = assay: Apoptosis induction in combination with histone deacetylase inhibitor TSA; type: cell-based; details: 48 h
Text: The compound may show activity to activate E2F1-induced apoptosis of at least about 15%, or at least about 20 or 25%, or about 15 to 25%, 15 to 30%, 15 to 20% or 20 to 25%. In this context, transcription factor E2F1, which is involved in the action of tumour suppressing proteins, was engineered with ER receptor ligand binding domain. (ER receptor is a nuclear hormone type of intracellular oestrogen receptor.) The compound may show activity to activate E2F1-induced apoptosis in the presence of 4-OHT of at least about 25% or of at least about 30, 40, 50, 60, 70 or 80%, or of about 25 to about 80%, or about 30 to 80, 50 to 80, 60 to 80 or 50 to 70%, e.g. about 25, 30, 35, 40, 45, 50, 55, 60, 65, 70, 75, 80 or 85%. 4-OHT is 4-hydroxytamoxifen, an anti-estrogenic metabolite of tamoxifen with a much higher affinity for oestrogen receptors than tamoxifen itself. The compound may show apoptosis induction in colon cancer cells with histone deacetylase inhibitor TSA (Trichostatin A) of at least about 40%, or at least about 50, 60, 70 or 80%, or about 40 to about 90%, or about 50 to 90, 70 to 90, 40 to 60 or 50 to 80%, e.g. about 40, 50, 60, 70, 80 or 90%. It may be capable of inhibiting the function of Polycomb repressive complex 2 (PRC2) proteins. In this context, activity % refers to the percentage of cell undergoing apoptosis (death) under the combination drug treatment of DZNep analogue with TSA for 48 h.
The second assay was designed to measure synergistic effect of new compounds with histone deacetylase inhibitor TSA for apoptosis induction in colon cancer cells. DZNep is known to synergy with TSA to induce strong apoptosis in colon cancer cells ((Jiang et al., Cancer Cell, 13, 529-541, 2008). Again the new compounds are compared with DZNep in the context of inducing apoptosis with TSA. Assays were conducted in accordance with Jiang et al (above).

Row | Structure (SMILES) | E2F1 Induced apoptosis % Apoptosis (HCT115 ER-E2F1 cells) [%] | Combination with HDAC inhibitor TSA % Apoptosis (colon cancer cells)
1 | Nc1ncnc2c1ncn2[C@@H]1CC[C@@H](O)[C@H]1O (racemic) [Compound 32, (±)-(1R,2S,3R)-3-(6-Amino-9H-purin-9-yl)-1,2-cyclopentanediol hydrochloride] | 21 | 58%
2 | Nc1nccc2c1ncn2[C@@H]1C=C(CO)[C@@H](O)[C@H]1O [Compound 22, 3-Deazaneplanocin A, reference compound] |  | 70-75%
3 | COCC1=C[C@@H](n2cnc3c(N)ncnc32)[C@H](O)[C@@H]1O [Compound 25, (1S,2R,5R)-5-(6-amino-9H-purin-9-yl)-3-(methoxymethyl)cyclopent-3-ene-1,2-diol hydrochloride] | 25 | 82%
